Source: the supplement of paper PMC10849652
The other results are listed elsewhere or left out.

Protein sequences, listed by entry. Tags and fused reporters are not part of them. Lines headed by an entry give the natural chain unless they say otherwise; changes in a name come on top.
UniProt Q9Y5V0: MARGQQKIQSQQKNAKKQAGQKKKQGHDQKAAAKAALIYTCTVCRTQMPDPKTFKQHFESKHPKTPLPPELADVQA
UniProt P17028: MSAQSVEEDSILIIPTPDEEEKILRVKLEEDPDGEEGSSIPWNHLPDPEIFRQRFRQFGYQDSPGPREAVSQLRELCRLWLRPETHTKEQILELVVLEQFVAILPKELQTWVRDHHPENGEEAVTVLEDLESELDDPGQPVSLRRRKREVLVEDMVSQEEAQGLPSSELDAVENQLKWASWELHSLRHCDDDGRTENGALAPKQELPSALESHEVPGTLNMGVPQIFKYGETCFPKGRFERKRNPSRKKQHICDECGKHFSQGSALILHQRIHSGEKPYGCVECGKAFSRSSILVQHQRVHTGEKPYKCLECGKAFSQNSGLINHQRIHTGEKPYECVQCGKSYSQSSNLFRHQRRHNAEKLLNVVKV
UniProt O15014: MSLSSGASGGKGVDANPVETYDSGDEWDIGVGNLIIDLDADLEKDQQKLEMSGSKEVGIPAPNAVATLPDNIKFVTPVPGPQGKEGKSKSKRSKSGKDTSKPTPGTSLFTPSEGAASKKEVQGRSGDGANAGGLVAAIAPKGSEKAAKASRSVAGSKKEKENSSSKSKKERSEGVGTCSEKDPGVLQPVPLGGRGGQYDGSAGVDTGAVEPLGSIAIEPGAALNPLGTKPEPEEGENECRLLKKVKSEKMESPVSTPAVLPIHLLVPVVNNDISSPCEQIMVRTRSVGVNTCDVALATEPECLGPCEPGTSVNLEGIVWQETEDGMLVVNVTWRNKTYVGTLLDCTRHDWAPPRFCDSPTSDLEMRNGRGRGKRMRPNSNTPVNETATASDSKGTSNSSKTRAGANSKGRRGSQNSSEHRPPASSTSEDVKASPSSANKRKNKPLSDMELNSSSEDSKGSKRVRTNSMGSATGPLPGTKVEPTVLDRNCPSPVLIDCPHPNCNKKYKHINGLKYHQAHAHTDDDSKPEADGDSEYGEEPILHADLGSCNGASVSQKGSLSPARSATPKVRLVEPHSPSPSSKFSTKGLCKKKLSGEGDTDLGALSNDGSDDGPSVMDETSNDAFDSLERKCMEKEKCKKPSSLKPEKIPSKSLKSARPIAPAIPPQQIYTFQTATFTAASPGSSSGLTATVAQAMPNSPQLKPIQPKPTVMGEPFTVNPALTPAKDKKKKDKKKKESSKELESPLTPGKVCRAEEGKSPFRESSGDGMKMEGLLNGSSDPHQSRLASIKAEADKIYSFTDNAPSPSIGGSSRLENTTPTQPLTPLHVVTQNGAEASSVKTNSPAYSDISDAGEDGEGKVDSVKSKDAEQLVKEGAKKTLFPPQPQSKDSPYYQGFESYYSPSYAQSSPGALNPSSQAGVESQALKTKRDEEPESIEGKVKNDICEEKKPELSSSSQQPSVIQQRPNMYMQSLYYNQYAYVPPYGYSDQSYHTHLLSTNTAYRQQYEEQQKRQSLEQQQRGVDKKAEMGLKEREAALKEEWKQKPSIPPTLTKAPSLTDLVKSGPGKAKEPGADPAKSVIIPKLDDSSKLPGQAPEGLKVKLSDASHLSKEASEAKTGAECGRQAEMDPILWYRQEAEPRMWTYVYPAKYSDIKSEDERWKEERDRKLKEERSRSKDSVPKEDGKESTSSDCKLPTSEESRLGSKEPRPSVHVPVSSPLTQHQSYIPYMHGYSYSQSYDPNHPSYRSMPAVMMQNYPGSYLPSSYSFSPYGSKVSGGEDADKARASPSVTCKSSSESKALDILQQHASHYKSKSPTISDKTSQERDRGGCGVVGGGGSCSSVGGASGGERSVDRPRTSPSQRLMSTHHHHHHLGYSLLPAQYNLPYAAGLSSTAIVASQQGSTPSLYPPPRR
UniProt O95229: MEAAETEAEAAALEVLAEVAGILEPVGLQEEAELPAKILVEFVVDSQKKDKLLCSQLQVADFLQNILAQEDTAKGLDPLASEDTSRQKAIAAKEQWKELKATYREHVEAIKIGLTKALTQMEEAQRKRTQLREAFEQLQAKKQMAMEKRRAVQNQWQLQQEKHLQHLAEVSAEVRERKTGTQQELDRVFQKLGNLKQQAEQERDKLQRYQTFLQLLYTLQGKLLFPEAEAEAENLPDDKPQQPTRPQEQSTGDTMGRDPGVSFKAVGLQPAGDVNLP
UniProt O60232: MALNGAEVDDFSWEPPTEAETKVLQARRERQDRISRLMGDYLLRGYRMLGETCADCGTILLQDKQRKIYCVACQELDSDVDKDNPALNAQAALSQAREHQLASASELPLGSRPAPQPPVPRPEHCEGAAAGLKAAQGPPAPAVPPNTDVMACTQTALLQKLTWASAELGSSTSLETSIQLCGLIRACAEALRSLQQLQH
UniProt Q8NHG8: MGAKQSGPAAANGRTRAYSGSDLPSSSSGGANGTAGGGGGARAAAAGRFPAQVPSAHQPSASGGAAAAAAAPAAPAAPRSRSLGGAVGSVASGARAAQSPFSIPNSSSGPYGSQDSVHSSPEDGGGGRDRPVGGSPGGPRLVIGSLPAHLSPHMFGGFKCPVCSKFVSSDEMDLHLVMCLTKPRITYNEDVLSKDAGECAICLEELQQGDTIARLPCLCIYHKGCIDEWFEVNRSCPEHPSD
UniProt O43264: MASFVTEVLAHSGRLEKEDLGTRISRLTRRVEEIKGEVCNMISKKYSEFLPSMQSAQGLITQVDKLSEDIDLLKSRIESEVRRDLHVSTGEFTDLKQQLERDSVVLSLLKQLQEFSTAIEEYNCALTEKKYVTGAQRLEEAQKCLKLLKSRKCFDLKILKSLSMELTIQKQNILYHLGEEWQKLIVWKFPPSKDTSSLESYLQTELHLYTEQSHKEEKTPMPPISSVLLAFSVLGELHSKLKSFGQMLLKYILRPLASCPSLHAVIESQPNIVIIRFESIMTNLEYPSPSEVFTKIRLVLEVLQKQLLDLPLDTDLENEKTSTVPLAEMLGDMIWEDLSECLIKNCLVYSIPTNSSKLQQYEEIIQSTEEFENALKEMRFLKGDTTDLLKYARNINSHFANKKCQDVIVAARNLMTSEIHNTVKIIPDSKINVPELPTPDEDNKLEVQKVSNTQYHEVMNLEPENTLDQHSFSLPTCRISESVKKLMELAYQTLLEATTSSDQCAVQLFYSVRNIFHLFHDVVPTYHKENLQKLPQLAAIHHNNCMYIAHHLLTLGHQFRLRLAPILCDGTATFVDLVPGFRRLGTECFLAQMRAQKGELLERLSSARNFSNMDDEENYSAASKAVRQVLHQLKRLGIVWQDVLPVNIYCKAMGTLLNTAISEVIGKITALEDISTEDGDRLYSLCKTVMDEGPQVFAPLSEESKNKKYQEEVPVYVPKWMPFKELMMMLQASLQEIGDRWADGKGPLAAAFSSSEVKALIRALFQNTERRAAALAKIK
UniProt Q9H5H4: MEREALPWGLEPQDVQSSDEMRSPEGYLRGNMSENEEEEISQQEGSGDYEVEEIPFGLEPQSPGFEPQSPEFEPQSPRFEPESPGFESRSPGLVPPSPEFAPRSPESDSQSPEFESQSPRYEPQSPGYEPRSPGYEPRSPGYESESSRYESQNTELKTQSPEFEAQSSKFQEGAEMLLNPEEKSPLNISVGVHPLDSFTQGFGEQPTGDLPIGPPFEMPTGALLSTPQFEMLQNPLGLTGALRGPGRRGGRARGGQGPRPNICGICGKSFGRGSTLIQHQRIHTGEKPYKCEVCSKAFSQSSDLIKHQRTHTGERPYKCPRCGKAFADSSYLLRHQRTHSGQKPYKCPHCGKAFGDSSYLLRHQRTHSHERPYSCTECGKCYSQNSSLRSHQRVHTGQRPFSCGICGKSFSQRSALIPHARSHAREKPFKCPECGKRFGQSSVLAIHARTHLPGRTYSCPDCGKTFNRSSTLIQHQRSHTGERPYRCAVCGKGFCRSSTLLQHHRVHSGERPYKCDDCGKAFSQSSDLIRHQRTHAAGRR
UniProt Q96PM9: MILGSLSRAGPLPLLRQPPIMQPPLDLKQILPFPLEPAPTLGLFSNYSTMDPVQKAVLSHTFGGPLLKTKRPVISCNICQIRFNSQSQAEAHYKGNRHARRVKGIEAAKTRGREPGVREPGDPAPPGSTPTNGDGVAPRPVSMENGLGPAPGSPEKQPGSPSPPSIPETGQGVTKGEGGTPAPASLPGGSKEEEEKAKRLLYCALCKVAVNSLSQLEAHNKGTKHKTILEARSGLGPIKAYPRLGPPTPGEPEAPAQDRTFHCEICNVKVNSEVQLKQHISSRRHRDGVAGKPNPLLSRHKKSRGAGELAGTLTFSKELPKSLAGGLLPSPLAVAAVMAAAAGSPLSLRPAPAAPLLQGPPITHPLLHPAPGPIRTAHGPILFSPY
UniProt Q9Y3S2: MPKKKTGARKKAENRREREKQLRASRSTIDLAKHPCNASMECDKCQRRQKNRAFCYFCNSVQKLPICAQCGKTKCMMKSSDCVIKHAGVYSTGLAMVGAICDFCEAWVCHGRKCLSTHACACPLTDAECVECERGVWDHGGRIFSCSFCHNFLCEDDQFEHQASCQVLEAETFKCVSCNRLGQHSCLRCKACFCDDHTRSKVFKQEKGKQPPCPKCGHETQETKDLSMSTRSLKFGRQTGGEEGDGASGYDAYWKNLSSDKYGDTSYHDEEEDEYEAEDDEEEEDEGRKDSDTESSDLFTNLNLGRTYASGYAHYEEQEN
UniProt Q96NB3: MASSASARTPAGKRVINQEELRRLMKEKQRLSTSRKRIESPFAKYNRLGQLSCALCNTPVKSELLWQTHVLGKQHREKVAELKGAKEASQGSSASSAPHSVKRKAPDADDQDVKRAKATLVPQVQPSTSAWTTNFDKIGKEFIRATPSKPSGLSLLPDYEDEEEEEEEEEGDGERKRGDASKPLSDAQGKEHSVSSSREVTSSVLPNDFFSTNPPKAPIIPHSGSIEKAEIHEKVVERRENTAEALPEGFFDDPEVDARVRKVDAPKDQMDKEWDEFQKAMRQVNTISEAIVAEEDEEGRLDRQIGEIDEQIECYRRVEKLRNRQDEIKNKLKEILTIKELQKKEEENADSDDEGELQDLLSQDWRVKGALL
UniProt Q969S3: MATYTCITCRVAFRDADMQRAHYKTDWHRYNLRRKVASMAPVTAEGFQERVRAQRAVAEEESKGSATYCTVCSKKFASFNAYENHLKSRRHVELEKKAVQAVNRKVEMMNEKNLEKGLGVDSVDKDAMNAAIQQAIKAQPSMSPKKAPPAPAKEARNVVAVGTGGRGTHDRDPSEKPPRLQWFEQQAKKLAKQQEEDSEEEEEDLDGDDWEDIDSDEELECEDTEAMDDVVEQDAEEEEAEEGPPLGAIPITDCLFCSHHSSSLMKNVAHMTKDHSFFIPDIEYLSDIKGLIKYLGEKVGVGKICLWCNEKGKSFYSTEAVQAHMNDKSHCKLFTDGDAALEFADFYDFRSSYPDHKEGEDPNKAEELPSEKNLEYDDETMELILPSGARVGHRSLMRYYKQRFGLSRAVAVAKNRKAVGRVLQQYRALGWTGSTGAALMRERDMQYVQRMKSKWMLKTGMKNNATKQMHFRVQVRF
UniProt Q8ND25: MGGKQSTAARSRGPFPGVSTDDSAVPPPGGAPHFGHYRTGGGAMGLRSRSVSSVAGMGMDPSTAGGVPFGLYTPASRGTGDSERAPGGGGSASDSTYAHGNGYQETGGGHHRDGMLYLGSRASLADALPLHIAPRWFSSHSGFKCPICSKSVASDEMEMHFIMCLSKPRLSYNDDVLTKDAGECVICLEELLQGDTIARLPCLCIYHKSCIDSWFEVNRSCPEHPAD
UniProt Q86UK7: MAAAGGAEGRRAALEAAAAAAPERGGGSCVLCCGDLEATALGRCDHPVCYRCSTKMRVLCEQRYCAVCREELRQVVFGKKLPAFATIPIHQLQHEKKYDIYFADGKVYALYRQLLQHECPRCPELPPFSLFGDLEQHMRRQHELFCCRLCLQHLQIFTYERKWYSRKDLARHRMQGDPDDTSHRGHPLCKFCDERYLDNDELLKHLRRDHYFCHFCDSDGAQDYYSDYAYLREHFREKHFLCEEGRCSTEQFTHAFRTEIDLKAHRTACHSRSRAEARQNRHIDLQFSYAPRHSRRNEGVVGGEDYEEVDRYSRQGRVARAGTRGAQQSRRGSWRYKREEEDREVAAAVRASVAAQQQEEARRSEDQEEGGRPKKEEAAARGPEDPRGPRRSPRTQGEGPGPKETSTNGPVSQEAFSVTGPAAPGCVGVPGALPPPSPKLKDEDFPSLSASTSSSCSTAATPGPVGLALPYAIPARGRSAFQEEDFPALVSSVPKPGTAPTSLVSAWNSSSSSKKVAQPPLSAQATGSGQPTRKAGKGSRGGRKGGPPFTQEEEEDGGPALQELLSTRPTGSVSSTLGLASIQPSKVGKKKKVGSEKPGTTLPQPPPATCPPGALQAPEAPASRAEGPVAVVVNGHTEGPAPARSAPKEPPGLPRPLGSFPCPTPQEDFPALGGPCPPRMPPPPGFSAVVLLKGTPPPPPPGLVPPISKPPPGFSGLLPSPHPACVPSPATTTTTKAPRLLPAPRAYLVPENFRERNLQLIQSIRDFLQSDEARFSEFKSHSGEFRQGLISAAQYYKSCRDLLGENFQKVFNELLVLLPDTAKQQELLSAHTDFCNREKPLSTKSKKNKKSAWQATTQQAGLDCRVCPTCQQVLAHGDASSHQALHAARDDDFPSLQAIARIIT

compound: C1=CC=C(C=C1)[C@H](COC2=CC3=C(C=C2)NC(=O)N3)NC(=O)C4=CC=CN(C4=O)CC5=CC(=C(C=C5)F)F; assay: log2 fold change, soluble protein after heating vs DMSO (PISA); higher = thermal stabilisation; K562 cells, 10 uM, 30 min; active = over 0.2 and 3.5 SD of the protein, either way, in both replicates (recomputed)
Procedure, shortened: (§1)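 Quantification of soluble protein used TMTpro 16plex LC-MS/MS, with channel sums equalised. Samples were the supernatant after 21,000xg for 90 min of pooled aliquots from K562 cells (2×10^6 cells/mL) treated with 10 μM compound for 30 min, heated for 3 min over 48°C-58°C, and extracted in PBS with 0.5% NP-40 at 4°C. Values, from duplicates, describe thermal stability against control samples on a log2 fold-change scale.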

| Target | log2 fold change |
| --- | --- |
| ZNF384 (UniProt Q8TF68) | inactive: 0.117 |
| ZNF414 isoform 2 (UniProt Q96IQ9) | inactive: 0.09 |
| ZNF579 (UniProt Q8NAF0) | inactive: 0.05 |
| ZNF706 (UniProt Q9Y5V0) | inactive: -0.003 |
| ZNF24 (UniProt P17028) | inactive: 0.028 |
| ZNF609 (UniProt O15014) | inactive: 0.035 |
| ZZEF1 (UniProt O43149) | inactive: -0.068 |
| ZNF511 isoform 1 (UniProt Q8NB15) | inactive: -0.015 |
| ZNHIT3 (UniProt Q15649) | inactive: -0.004 |
| ZNF672 (UniProt Q499Z4) | inactive: 0.045 |
| ZNF428 (UniProt M0QXZ5) | inactive: -0.034 |
| ZNF618 (UniProt Q5T7W0) | inactive: 0.06 |
| ZWINT (UniProt O95229) | inactive: -0.011 |
| ZYX (UniProt Q15942) | inactive: 0.024 |
| ZNRD2 (UniProt O60232) | inactive: -0.008 |
| ZYG11B (UniProt Q9C0D3) | inactive: 0.057 |
| ZNHIT6 (UniProt Q9NWK9) | inactive: -0.042 |
| ZNRF2 (UniProt Q8NHG8) | inactive: -0.058 |
| ZW10 (UniProt O43264) | inactive: -0.044 |

| Target | log2 fold change |
| --- | --- |
| ZNF768 (UniProt Q9H5H4) | inactive: 0.028 |
| ZNF385A (UniProt Q96PM9) | inactive: 0.055 |
| ZNF593 (UniProt O00488) | inactive: 0.001 |
| ZNF691 (UniProt Q5VV52) | inactive: 0.073 |
| ZNF330 (UniProt Q9Y3S2) | inactive: -0.03 |
| ZNF346 (UniProt Q9UL40) | inactive: 0.045 |
| ZNF277 (UniProt Q9NRM2) | inactive: -0.134 |
| ZNRD1 (UniProt Q9P1U0) | inactive: -0.097 |
| ZNHIT1 (UniProt O43257) | inactive: -0.066 |
| ZRANB2 (UniProt O95218) | inactive: -0.002 |
| ZPR1 (UniProt O75312) | inactive: 0 |
| ZNF787 (UniProt Q6DD87) | inactive: 0.054 |
| ZNF638 (UniProt Q14966) | inactive: -0.014 |
| ZWILCH (UniProt Q9H900) | inactive: -0.077 |
| ZNF830 (UniProt Q96NB3) | inactive: 0.024 |
| ZNF622 (UniProt Q969S3) | inactive: -0.028 |
| ZNRF1 isoform 2 (UniProt Q8ND25) | inactive: -0.028 |
| ZNF629 (UniProt Q9UEG4) | inactive: 0.018 |
| ZNF598 (UniProt Q86UK7) | inactive: -0.067 |

compound: CC1=C(SC2=C1C(=N[C@H](C3=NN=C(N32)C)CC(=O)N)C4=CC=C(C=C4)Cl)C; assay: as above
Procedure, shortened: as §1

| Target | log2 fold change |
| --- | --- |
| ZNF384 (UniProt Q8TF68) | inactive: -0.018 |
| ZNF414 isoform 2 (UniProt Q96IQ9) | inactive: -0.123 |
| ZNF579 (UniProt Q8NAF0) | inactive: -0.074 |
| ZNF706 (UniProt Q9Y5V0) | inactive: -0.098 |
| ZNF24 (UniProt P17028) | inactive: -0.148 |
| ZNF609 (UniProt O15014) | inactive: -0.008 |
| ZZEF1 (UniProt O43149) | inactive: 0.016 |
| ZNF511 isoform 1 (UniProt Q8NB15) | inactive: -0.128 |
| ZNHIT3 (UniProt Q15649) | inactive: 0.019 |
| ZNF672 (UniProt Q499Z4) | inactive: -0.105 |
| ZNF428 (UniProt M0QXZ5) | inactive: 0.042 |
| ZNF618 (UniProt Q5T7W0) | inactive: 0.042 |
| ZWINT (UniProt O95229) | inactive: -0.005 |
| ZYX (UniProt Q15942) | inactive: 0.016 |
| ZNRD2 (UniProt O60232) | inactive: 0.07 |
| ZYG11B (UniProt Q9C0D3) | inactive: 0.086 |
| ZNHIT6 (UniProt Q9NWK9) | inactive: -0.037 |
| ZNRF2 (UniProt Q8NHG8) | inactive: 0.095 |
| ZW10 (UniProt O43264) | inactive: 0.044 |

| Target | log2 fold change |
| --- | --- |
| ZNF768 (UniProt Q9H5H4) | inactive: -0.374 |
| ZNF385A (UniProt Q96PM9) | inactive: -0.048 |
| ZNF593 (UniProt O00488) | inactive: -0.049 |
| ZNF691 (UniProt Q5VV52) | inactive: -0.128 |
| ZNF330 (UniProt Q9Y3S2) | inactive: -0.067 |
| ZNF346 (UniProt Q9UL40) | inactive: -0.066 |
| ZNF277 (UniProt Q9NRM2) | inactive: 0.028 |
| ZNRD1 (UniProt Q9P1U0) | inactive: -0.019 |
| ZRANB2 (UniProt O95218) | inactive: -0.073 |
| ZPR1 (UniProt O75312) | inactive: 0.034 |
| ZNF787 (UniProt Q6DD87) | inactive: -0.254 |
| ZNF638 (UniProt Q14966) | inactive: -0.063 |
| ZWILCH (UniProt Q9H900) | inactive: 0.036 |
| ZNF830 (UniProt Q96NB3) | inactive: -0.017 |
| ZNF622 (UniProt Q969S3) | inactive: 0.033 |
| ZNRF1 isoform 2 (UniProt Q8ND25) | inactive: 0.053 |
| ZNF629 (UniProt Q9UEG4) | inactive: -0.193 |
| ZNF598 (UniProt Q86UK7) | inactive: 0.05 |
